Measurements taken from publication PMC7431833.
These are yes or no findings as the source states them, for the method shown. Binding seen in cells or lysates may run through a third protein. Some results given as binding are weak or reduced against the parent protein; the word gives no strength. For part of these data: Sequences can lack the tags named with a protein.

Amino acid sequences for entries named in this document (tags omitted). A change or cut given only in a name is not applied to a line headed by its entry. Chains listed by the source or under a name are the forms on record and can include a tag or linker. Residues count along the entry.
UniProt P56817, residues 46-501: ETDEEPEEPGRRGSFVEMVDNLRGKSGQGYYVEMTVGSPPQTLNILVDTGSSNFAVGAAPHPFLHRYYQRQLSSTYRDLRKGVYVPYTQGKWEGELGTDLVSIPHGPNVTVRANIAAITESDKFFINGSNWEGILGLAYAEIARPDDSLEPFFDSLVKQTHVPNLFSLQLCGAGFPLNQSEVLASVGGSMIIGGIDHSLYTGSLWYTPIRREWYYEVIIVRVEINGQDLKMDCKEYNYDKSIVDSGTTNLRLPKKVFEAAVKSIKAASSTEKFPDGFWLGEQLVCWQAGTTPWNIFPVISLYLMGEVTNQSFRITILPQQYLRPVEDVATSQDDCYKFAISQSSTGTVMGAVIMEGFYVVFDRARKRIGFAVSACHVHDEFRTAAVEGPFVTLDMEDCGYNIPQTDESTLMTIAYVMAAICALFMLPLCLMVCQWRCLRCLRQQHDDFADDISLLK
UniProt Q9NQC3: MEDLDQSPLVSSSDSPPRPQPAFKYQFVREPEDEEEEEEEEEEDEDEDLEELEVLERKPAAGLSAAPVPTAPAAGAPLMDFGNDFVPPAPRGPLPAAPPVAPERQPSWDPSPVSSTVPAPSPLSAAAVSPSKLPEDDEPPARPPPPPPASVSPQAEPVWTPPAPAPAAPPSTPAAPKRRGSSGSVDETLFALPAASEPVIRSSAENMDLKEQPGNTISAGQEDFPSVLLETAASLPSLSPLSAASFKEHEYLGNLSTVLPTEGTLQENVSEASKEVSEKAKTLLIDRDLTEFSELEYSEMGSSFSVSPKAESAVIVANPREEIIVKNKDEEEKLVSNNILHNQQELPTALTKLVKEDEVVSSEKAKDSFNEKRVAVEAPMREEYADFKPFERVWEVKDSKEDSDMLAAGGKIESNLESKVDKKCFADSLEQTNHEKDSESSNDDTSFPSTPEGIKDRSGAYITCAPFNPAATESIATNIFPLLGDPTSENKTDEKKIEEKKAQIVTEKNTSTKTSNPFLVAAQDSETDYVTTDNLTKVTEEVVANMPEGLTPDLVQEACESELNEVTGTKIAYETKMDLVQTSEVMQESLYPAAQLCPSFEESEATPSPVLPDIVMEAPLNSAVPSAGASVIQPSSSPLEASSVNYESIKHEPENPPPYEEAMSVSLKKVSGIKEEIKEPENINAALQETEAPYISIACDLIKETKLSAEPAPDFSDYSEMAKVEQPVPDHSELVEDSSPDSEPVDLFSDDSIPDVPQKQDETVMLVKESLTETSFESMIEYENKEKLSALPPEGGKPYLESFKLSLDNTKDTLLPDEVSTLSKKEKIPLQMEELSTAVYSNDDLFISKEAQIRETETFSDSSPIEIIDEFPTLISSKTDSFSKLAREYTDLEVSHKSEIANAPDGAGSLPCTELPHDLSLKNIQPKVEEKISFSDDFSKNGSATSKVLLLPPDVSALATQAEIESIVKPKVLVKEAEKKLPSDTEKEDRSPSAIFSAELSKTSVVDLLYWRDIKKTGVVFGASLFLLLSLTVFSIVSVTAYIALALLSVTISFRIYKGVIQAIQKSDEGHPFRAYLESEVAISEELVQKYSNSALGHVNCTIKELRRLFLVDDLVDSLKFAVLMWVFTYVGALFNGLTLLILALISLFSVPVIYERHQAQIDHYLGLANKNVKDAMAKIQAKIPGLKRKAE
Flag-RTN4B (Reticulon 4B) (Q9NQC3-2, form named): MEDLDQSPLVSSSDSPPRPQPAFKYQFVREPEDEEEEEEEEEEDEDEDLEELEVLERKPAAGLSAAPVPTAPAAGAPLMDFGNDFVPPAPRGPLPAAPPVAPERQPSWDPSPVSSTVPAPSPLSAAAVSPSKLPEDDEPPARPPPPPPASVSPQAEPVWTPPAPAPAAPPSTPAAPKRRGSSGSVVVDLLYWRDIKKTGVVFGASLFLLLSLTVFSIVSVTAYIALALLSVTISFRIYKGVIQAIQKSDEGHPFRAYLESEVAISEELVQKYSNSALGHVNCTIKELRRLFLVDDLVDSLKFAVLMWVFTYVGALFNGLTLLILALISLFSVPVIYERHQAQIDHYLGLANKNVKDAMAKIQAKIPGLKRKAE

T1: HA-SIRT2 (Sirtuin 2) (UniProt Q8IXJ6)
T1 sequence: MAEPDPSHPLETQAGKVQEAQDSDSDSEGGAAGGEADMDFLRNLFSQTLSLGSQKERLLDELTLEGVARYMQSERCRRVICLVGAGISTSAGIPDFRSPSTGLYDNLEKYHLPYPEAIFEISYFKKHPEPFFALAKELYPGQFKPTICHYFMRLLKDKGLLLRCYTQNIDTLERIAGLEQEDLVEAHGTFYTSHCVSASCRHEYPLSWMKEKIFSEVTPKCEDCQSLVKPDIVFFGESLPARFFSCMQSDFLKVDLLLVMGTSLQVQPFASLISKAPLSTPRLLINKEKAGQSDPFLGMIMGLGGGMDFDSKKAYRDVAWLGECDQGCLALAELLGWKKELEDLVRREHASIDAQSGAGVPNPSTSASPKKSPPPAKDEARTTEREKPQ


Experiments:
HA-BACE1 (β‐secretase 1) = HA-BACE1 (β‐secretase 1) (UniProt P56817); assay: co-IP; HA- and Flag-tagged proteins transiently transfected into 293T cells; whole-cell lysates incubated with HA or Flag antibody overnight at 4 °C, protein A/G agarose beads 3 hr at 4 °C, washed with lysis buffer; western blot with HA or Flag antibodies
HA-SIRT2 (Sirtuin 2) = molecular target: T1, HA-SIRT2 (Sirtuin 2); assay: as above
[1] = molecular target: Flag-RTN4B (Reticulon 4B) (UniProt Q9NQC3); assay: as above
[2] = molecular target: Flag-RTN4B (Reticulon 4B) (UniProt Q9NQC3); assay: co-IP; Co-IP of SIRT2 with the three RTN4 isoforms (Appendix S1, Figure S7); cells, tags and bait not shown
[3] = molecular target: Flag-RTN4A (Reticulon 4A) (UniProt Q9NQC3); assay: as above

binding (HA-BACE1 (β‐secretase 1)) | binding (HA-SIRT2 (Sirtuin 2)) | binding [1] | binding [2] | binding [3] | Molecule
binds | binds | – | – | – | Flag-RTN4B (Reticulon 4B) (from UniProt Q9NQC3-2 1-373)
– | – | binds | – | – | HA-BACE1 (β‐secretase 1) (from UniProt P56817 46-501) (enzyme)
– | – | binds | binds | binds weakly | HA-SIRT2 (Sirtuin 2) (enzyme, UniProt Q8IXJ6 1-389) MAEPDPSHPLETQAGKVQEAQDSDSDSEGGAAGGEADMDFLRNLFSQTLSLGSQKERLLDELTLEGVARYMQSERCRRVICLVGAGISTSAGIPDFRSPSTGLYDNLEKYHLPYPEAIFEISYFKKHPEPFFALAKELYPGQFKPTICHYFMRLLKDKGLLLRCYTQNIDTLERIAGLEQEDLVEAHGTFYTSHCVSASCRHEYPLSWMKEKIFSEVTPKCEDCQSLVKPDIVFFGESLPARFFSCMQSDFLKVDLLLVMGTSLQVQPFASLISKAPLSTPRLLINKEKAGQSDPFLGMIMGLGGGMDFDSKKAYRDVAWLGECDQGCLALAELLGWKKELEDLVRREHASIDAQSGAGVPNPSTSASPKKSPPPAKDEARTTEREKPQ
